The values that follow come from article PMC8227980 (2021).

This series can be described thus: peptide synthesis. As to conditions: conjugation step.

As to DBCO-E[c(RGDfK)]2, the conjugation yield worked out at 21.7%.
NODAGA-LacN-E[c(RGDfK)]2: the conjugation yield was 35%.
